Test results taken from PMC10279913.

Protein sequences, listed by entry. Tags and fused reporters are not part of them. Lines headed by an entry give the natural chain unless they say otherwise; changes in a name come on top.
UniProt Q9N536: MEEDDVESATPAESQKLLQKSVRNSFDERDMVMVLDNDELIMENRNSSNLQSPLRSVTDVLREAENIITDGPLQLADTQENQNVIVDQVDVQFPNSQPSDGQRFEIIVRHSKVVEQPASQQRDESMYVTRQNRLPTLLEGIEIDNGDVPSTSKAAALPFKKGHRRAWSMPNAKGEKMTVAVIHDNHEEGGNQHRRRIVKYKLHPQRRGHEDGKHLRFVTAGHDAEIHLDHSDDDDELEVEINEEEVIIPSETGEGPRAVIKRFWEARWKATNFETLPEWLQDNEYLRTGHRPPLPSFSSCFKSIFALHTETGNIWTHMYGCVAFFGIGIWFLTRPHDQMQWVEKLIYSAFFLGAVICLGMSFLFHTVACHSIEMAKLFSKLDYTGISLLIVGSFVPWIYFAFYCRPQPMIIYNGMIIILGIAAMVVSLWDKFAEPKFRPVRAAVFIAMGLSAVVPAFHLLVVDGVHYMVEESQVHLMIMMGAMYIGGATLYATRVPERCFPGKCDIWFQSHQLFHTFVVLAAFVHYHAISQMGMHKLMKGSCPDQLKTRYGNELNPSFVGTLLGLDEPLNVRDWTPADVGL

B1: Probable coatomer subunit gamma (protein, UniProt Q22498 1-870)
chain: MKTNKKDEETGGNVYAHLDKTSVLQEARAFNETPINARKCCFILSKLIYIIQQGESIGRTEATEAFFGVTKLWQSKDVSLRRMVYLAVKELAEVSDDVIIVTSSLTKDMTGREDLYRAAAIRALCKITDTGMLQTIERYMKQAIVDRNSAISSSAIVSSIHLMRKSSEVVRRWANEVQEAVSSDNHMVQYHALALLYQIRANDRLAVNKLVQKFSKNALRSPYAVCYLIRIATRCLVDDDQPDSSVFTFIESCLRHKSEMVVYEAARAIVSLPQTTPSEIQPAITALQMCCTSPKAAVRFAAVRTLNKVAMAHPNAVMSCNVDLEKFITDPNRSIATLAITTLLKTGAESSVERLMQQIAGFVNEISDEFKIVVVDAIRSLCSRYPRKHTVMMPFLAKMLRSDGSYDYKKAIVETIIAIIEENPDAKVAGLAHLCEFIEDCEHDNLSTRVLHLLGREAPKTPNPSSYIRFIYNRVILESTKVRAAAVTALAKFGAQCVDLRPSIQVLLKRCLLDSDDEVRDRATFYLKMLTEAAEGLIHNFILDGLQVSPSGLERSILDYLRSGSYSSPFDLRVVPVTQQALSQPEKRVPQLVEEEEKPKAPKVEPYAAQLAAIPQFAALGPVFKSSTRIALTESIAEYTVHMIKHTFANAMVLQFECKNTMNDQLLLDVSVELEDPDGEWETGNTVQIDKLPYGEVHSAFSLLEFPDSGAISGSLGAILKFKVMDVDPTSGEPDSDDTYEQTYVLEEVDVNVSDSVQGVAKSSFGSAWEALGDDATREETFQLSTVENIPDAVKKISEILGLVPCERSDRVPEGKTQHTVFLSGVFRGGYDVLSKATVAVDPNDNSIAMNIIIKSNEPLVADLVISAVV
B2: DHS-3 (protein, UniProt A5JYX5 1-309)
chain: MPYVFLLSPQLEIASQWDGYYEKTFEVSDHVHKEIILKVSGQTVLITGSGSGLGRLMAFEFGKLGARLVLWDINEQGNKETLKELEAMGVEAKAYTVDLSEYKEINRTADLVKSEVGKVDILVNNAGIVTGKKLLQCPDELMVKTVSVNTNALFFTTKNFLPGMLESNKGHIVTIASMAGKCGVAGLVDYCASKHGAVGFNDSLASELYALKKDVKTTVVCPIYINTGMFDGIATKWPTLLPILSPEYVVDCIMEAVLTDRAFLAIPKFSYIFIALAGLLPTEVLNLYGDHFGITHSMDHFKGRQSRQA
B3: ELO-2 (enzyme, UniProt Q9XVQ9 1-274)
chain: MAAAQTSPAATLVDVLTKPWSLDQTDSYMSTFVPLSYKIMIGYLVTIYFGQKLMAHRKPFDLQNTLALWNFGFSLFSGIAAYKLIPELFGVFMKDGFVASYCQNENYYTDASTGFWGWAFVMSKAPELGDTMFLVLRKKPVIFMHWYHHALTFVYAVVTYSEHQAWARWSLALNLAVHTVMYFYFAVRALNIQTPRPVAKFITTIQIVQFVISCYIFGHLVFIKSADSVPGCAVSWNVLSIGGLMYISYLFLFAKFFYKAYIQKRSPTKTSKQE
B4: Probable glutathione S-transferase 7 (enzyme, UniProt P91253 1-206)
chain: MVHYKVSYFPIRGAGEIARQILAYAGQDFEDNRIPKEEWPAVKPSTPFGQLPLLEVDGKVLAQSHAIARYLARQFGINGKCAWEEAQVNSVADQFKDYLNEVRPYFMVKMGFAEGDLDALAKDVFLPGFKKHYGFFANFLKSAGSGYLVGDSLTFVDLLVAQHTADLLAANAALLDEFPQFKAHQEKVHSNANIKKWLETRPVTPF
B5: Very-long-chain (3R)-3-hydroxyacyl-CoA dehydratase hpo-8 (enzyme, UniProt O17040 1-218)
chain: MSVQTYLVAYNVLQILGWSAILVKTVLGLANGLTWPQLYESVEFELKIFQTAAILEVIHAIVGLVRSPVGTTAMQVTSRVVLVWPILHLCSTARFSIGVPLLLVAWSVTEVIRYSFYALSVLKQPIPYFLLYLRYTLFYVLYPMGVSGELLTLFASLNEVDEKKILTLEMPNRLNMGISFWWVLIIAALSYIPGFPQLYFYMIGQRKKILGGGSKKKQ

target: HA::PAQR-2 (C. elegans) (UniProt Q9N536); test: affinity purification with mass spectrometry; anti-HA immunoprecipitation (rabbit mAb C29F4 + protein A-agarose, 1 h, 4 °C) from lysates of whole worms carrying HA::PAQR-2; 25 mM Tris pH 7.5, 300 mM NaCl, 0.1% NP-40, no protease inhibitor; eluted with 0.2 M glycine pH 2.5; 2 IPs; control: worms without HA-tagged protein

binding, binds:
B1
B2
B3
B4
B5

Results are given in words; binding and its absence hold for the method and conditions named. In cells and extracts the contact can be indirect. Here binding means that the protein was enriched with, or labelled near, the bait; the list need not be complete.
